# Some of the results follow. Small differences around the control level are noise.
# Chains of the proteins cited; added tags and fusions are not shown. Lines headed by an entry give the natural chain unless they say otherwise; changes in a name come on top.
# UniProt Q8C013: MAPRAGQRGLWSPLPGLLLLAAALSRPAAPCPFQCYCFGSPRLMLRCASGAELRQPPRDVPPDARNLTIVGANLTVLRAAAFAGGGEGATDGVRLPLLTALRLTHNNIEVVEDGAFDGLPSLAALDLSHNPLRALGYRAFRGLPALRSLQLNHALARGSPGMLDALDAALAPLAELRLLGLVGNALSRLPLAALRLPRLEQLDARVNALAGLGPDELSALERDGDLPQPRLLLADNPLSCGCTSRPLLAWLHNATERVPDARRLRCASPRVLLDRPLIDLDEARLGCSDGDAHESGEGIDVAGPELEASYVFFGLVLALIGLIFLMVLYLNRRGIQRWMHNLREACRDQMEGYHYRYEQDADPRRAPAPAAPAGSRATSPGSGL
# UniProt Q8C262: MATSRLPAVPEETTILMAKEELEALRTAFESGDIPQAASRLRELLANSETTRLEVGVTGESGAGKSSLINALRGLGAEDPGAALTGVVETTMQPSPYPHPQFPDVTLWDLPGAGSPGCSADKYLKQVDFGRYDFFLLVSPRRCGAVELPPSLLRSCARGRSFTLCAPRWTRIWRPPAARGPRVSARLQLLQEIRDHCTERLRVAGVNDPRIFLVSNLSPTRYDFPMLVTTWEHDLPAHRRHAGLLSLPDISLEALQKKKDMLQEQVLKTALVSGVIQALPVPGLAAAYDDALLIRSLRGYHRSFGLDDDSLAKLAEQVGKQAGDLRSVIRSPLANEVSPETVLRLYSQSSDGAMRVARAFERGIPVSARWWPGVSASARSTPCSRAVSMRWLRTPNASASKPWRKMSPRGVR
# UniProt Q8BYM8: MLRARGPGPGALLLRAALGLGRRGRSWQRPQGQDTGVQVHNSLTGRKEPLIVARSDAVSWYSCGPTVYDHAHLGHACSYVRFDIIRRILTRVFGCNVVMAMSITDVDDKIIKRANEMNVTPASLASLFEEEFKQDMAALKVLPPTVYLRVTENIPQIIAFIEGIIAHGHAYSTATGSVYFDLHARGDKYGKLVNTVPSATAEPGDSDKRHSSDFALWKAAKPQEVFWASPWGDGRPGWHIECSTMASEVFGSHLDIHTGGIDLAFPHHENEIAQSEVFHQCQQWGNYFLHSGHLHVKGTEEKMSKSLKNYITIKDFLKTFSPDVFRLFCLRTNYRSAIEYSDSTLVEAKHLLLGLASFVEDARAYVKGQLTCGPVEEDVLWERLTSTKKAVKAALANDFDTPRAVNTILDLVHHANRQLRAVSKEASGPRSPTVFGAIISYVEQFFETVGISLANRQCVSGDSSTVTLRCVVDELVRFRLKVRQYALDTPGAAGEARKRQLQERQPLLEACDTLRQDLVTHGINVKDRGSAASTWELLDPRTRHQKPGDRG
# UniProt Q8C0L0: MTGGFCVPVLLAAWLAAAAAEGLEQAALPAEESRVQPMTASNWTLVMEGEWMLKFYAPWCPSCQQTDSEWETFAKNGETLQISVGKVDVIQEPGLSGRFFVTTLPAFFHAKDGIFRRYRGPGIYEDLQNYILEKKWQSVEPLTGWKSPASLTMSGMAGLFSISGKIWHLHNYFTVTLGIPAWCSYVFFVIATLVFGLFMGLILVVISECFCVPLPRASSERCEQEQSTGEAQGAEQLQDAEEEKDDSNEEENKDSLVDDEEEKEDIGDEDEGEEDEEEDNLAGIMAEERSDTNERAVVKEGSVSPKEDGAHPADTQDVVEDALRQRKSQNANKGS
# UniProt Q8BYZ1: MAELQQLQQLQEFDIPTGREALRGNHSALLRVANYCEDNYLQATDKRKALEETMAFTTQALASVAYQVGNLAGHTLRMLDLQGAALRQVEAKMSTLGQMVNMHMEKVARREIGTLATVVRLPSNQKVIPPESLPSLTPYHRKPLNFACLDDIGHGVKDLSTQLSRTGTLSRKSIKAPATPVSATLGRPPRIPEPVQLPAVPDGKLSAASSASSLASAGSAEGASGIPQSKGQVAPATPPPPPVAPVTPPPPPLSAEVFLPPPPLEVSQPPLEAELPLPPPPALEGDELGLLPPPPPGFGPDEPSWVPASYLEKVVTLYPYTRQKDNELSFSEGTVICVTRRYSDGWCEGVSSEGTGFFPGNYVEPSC
# UniProt Q8BYR1: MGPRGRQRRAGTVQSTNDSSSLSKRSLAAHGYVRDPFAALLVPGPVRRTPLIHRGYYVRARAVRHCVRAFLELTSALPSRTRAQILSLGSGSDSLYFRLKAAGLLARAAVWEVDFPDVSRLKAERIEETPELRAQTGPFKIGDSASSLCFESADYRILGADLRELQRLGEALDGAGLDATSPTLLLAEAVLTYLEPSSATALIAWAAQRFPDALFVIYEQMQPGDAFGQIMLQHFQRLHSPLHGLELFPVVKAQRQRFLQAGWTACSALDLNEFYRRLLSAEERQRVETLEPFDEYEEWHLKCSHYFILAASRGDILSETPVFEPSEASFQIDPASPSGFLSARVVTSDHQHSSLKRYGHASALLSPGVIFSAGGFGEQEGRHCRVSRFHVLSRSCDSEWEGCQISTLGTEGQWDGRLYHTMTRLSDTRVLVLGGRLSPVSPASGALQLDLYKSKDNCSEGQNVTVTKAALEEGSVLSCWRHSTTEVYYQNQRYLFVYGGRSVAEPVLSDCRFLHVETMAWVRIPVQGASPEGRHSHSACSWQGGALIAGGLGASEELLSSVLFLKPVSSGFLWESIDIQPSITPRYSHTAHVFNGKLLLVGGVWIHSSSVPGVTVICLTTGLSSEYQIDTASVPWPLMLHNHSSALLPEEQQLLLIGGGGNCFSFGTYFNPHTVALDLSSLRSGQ
# UniProt Q8C0T7: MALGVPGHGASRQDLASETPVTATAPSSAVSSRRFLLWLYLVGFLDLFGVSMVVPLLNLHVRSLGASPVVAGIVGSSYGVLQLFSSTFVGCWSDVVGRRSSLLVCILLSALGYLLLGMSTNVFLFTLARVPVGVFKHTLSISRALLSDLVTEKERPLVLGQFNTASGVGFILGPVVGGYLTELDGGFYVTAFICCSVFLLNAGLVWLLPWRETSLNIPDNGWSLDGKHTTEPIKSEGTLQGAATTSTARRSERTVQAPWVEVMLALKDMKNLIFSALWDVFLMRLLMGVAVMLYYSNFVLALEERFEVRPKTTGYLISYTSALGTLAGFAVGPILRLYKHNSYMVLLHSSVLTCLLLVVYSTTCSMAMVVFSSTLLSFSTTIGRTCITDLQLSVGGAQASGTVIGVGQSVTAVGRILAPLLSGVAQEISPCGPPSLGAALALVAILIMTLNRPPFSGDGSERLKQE
# UniProt Q8BZ60: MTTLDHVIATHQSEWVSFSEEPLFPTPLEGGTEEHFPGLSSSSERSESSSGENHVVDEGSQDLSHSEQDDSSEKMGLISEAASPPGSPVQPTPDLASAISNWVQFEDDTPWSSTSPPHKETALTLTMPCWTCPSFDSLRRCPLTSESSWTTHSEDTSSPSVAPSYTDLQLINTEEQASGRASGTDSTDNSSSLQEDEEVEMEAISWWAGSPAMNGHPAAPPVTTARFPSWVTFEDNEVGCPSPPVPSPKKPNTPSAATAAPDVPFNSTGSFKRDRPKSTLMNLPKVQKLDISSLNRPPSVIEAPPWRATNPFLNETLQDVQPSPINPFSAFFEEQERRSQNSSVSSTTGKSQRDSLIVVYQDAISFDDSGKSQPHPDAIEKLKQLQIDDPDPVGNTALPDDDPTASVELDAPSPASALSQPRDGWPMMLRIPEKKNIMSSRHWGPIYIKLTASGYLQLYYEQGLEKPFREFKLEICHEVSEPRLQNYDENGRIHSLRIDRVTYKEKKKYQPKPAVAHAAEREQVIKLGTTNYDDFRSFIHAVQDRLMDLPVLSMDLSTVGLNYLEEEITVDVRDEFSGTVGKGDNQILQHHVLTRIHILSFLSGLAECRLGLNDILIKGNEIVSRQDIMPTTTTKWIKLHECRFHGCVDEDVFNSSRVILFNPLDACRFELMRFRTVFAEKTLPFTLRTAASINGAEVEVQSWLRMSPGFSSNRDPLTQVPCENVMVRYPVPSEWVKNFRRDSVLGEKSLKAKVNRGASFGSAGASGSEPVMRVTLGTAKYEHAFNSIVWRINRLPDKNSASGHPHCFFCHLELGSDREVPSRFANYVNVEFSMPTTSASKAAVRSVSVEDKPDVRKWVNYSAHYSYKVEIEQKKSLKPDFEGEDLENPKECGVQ
# UniProt Q8C0V0: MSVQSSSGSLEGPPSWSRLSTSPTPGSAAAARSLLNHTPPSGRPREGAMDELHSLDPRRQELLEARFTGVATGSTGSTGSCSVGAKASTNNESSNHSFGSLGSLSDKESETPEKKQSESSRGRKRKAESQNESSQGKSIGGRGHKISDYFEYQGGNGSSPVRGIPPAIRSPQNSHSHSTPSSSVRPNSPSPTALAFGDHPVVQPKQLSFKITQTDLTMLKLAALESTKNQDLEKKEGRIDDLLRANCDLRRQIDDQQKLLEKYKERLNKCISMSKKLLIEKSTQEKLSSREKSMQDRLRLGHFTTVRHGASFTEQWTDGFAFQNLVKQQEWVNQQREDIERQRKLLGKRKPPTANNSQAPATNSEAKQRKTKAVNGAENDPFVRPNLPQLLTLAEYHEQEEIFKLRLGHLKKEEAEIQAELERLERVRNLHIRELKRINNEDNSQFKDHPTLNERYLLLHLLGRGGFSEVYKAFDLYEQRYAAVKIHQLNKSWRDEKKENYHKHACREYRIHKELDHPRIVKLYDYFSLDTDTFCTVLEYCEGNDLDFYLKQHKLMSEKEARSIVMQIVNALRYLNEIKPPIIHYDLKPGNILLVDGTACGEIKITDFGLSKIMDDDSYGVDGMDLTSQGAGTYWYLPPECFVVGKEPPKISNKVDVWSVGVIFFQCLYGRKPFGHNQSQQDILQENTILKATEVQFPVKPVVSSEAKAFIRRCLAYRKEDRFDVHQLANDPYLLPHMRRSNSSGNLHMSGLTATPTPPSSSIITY
# UniProt Q8C180: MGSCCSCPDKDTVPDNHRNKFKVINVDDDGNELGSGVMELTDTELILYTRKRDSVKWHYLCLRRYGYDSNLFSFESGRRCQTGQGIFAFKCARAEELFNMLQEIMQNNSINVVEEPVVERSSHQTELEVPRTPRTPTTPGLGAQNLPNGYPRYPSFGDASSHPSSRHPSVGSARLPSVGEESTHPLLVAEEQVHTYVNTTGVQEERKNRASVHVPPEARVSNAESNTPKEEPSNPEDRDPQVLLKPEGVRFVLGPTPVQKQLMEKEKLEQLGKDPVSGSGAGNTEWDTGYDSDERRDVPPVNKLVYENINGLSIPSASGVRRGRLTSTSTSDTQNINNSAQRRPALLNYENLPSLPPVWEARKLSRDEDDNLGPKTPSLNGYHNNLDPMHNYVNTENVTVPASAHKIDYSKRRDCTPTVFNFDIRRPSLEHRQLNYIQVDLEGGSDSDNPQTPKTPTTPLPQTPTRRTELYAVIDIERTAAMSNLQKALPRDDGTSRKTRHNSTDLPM
# UniProt Q8BWY4: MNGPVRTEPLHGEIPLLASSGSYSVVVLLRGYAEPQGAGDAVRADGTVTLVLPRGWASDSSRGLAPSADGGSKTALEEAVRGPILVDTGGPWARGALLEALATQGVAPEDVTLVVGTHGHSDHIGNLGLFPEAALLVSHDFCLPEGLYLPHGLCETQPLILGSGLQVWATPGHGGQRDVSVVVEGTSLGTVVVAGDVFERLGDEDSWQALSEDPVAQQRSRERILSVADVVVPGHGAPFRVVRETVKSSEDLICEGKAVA
# UniProt Q8BWQ6, whole entry: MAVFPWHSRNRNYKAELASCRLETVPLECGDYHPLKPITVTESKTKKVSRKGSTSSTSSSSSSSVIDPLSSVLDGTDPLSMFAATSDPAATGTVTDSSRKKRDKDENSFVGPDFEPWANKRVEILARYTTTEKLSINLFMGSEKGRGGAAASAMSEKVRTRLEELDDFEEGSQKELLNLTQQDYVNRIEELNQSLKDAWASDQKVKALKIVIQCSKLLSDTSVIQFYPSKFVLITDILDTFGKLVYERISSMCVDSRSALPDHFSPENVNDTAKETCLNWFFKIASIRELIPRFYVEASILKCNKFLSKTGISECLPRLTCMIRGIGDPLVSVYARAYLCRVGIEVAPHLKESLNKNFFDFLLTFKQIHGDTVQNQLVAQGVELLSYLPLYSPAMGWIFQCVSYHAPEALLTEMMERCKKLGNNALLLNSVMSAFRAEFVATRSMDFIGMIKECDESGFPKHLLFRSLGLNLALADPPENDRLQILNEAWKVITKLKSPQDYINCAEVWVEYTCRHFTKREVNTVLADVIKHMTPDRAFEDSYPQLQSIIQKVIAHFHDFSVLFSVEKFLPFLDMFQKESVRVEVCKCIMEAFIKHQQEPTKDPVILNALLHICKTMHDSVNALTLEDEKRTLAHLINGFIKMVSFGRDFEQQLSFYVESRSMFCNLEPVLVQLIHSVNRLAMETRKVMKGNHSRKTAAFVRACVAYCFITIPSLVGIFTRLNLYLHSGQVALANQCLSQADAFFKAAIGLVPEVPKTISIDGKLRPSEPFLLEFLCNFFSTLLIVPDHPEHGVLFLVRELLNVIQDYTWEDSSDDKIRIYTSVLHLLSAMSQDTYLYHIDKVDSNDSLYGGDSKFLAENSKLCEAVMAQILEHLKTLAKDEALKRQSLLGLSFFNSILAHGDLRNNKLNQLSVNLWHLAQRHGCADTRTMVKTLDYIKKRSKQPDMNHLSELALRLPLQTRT
# Compound: CN[C@@H]1C[C@H]2O[C@@](C)([C@@H]1OC)n1c3ccccc3c3c4c(c5c6ccccc6n2c5c31)C(=O)NC4 [staurosporine]
# Assay: log2 fold change of tryptic peptide abundance, ligand vs vehicle (limited proteolysis) (log2 ratio); higher = more trypsin-susceptible (destabilized)
# Details: ligand concentration: 20 uM; sample: mouse liver crude lysate; replicate design: treated separately
row,Target,log2 fold change
1,"UniProt Q8C9A2 (peptide sequence: KAPEPGFQEQK, peptide start residue: 301)",0.387
2,"UniProt Q8C013 (peptide sequence: YEQDADPR, peptide start residue: 357)",0.908
3,"UniProt Q8BZ36 (peptide sequence: NLFPLFSHYCK, peptide start residue: 711)",0.19
4,"UniProt Q8C262 (peptide sequence: SSLINALR, peptide start residue: 66)",0.143
5,"UniProt Q8BYM8 (peptide sequence: LVNTVPSATAEPGDSDKR, peptide start residue: 192)",0.21
6,"UniProt Q8C4J7 (peptide sequence: QQELDNLLHEKR, peptide start residue: 654)",-0.341
7,"UniProt Q8BYR5 (peptide sequence: EVLVAPGVSQR, peptide start residue: 21)",0.294
8,"UniProt Q8C0L0 (peptide sequence: EDGAHPADTQDVVEDALR, peptide start residue: 307)",-0.0346
9,"UniProt Q8BZ33 (peptide sequence: PSRIFGFVAK, peptide start residue: 648)",0.492
10,"UniProt Q8BYU6 (peptide sequence: QEVAQDTLRK, peptide start residue: 232)",1.09
11,"UniProt Q8BYZ1 (peptide sequence: VANYCEDNYLQATDKR, peptide start residue: 32)",0.34
12,"UniProt Q8BVI4 (peptide sequence: SLFKNCDMMWK, peptide start residue: 96)",-0.476
13,"UniProt Q8BYW1 (peptide sequence: HLSNDQR, peptide start residue: 493)",0.237
14,"UniProt Q8BVP5 (peptide sequence: EYIDPETKK, peptide start residue: 191)",-1.14
15,"UniProt Q8BYR1 (peptide sequence: IEETPELR, peptide start residue: 126)",-0.294
16,"UniProt Q8BXJ8 (peptide sequence: VAGKPLKPK, peptide start residue: 388)",0.56

# A few values from the list:
# Entry for UniProt Q8BVI4 (peptide sequence: SLFKNCDMMWK, peptide start residue: 96) under log2 fold change: -0.476
# Entry for UniProt Q8BYW1 (peptide sequence: HLSNDQR, peptide start residue: 493) under log2 fold change: 0.237

# More records

row,Target,log2 fold change
1,"UniProt Q8BZR9 (peptide sequence: NVALDRDMMKK, peptide start residue: 108)",0.639
2,"UniProt Q8C267 (peptide sequence: QVLEVPGKK, peptide start residue: 581)",-0.289
3,"UniProt Q8C0T7 (peptide sequence: HTTEPIKSEGTLQGAATTSTAR, peptide start residue: 228)",0.759
4,"UniProt Q8C5W3 (peptide sequence: LEPLAEVDLRPQSSAK, peptide start residue: 330)",-0.436
5,"UniProt Q8BZ60 (peptide sequence: SQNSSVSSTTGK, peptide start residue: 339)",-0.356
6,"UniProt Q8BZX4 (peptide sequence: EHSKESDATVSK, peptide start residue: 447)",0.872
7,"UniProt Q8BZG5 (peptide sequence: AALETVIR, peptide start residue: 343)",0.48
8,"UniProt Q8C1Q6 (peptide sequence: LEDTSETNLHK, peptide start residue: 67)",-0.222
9,"UniProt Q8C0V0 (peptide sequence: SLLNHTPPSGRPR, peptide start residue: 33)",-0.274
10,"UniProt Q8C180 (peptide sequence: YPSFGDASSHPSSR, peptide start residue: 153)",-0.228
11,"UniProt Q8BWY4 (peptide sequence: SSEDLICEGK, peptide start residue: 248)",-0.0318
12,"UniProt Q8C3X8 (peptide sequence: AASEQAAANSNSR, peptide start residue: 681)",-0.034
13,"UniProt Q8C0C7 (peptide sequence: THTTAASAR, peptide start residue: 326)",0.527
14,"UniProt Q8BWQ6 (peptide sequence: SMDFIGMIK, peptide start residue: 444)",0.0909
15,"UniProt Q8C1M2 (peptide sequence: ALGEEEEEPSR, peptide start residue: 118)",-0.159

# From the supplement of paper PMC12819154, “High-throughput peptide-centric local stability assay extends protein–ligand identification to membrane proteins, tissues and bacteria” (Nature Structural & Molecular Biology, 2025)
